The list shows a part of the results. Further columns of the screen follow, without active or inactive calls. The list favours compounds with an active or inconclusive main result. Words in brackets tell the shape of the fitted curve; partial curves, single points and poor fits give uncertain potencies.
Experiment: qHTS Assay for Lipid Storage Modulators in Drosophila S3 Cells;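 as to cell number change: cells counted by Cell Tracker Red CMTPX staining in the red channel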
Conditions: BODIPY lipid droplet fluorescence, 18-24 h; for cell number change: measured here: cell count max response, cells fed with added oleic acid
Method in brief: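 Drosophila S3 cells got compounds at several concentrations plus oleic acid (400 uM solution). Laser-scanning cytometry with 488 nm excitation read lipid droplets at 500-530 nm and cells at 575-640 nm. Percent activity was relative to 20 uM Triacsin C.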

[1] = measured here: lipid fluorescence (Fed channel) AC50, cells fed with added oleic acid
[2] = measured here: cell number channel AC50, cells fed with added oleic acid

SMILES	cell number change [%]	AC50 [1]	AC50 [2]
O=S(=O)(/C=C/c1ccccc1)Nc1cccc(S(=O)(=O)NC2=NCCC2)c1	21.2		
C=CCNc1nc(-c2ccc([N+](=O)[O-])cc2)cs1	9.43	0.0058 µM [falling, full curve, poor fit]	
CCOC(=O)c1[nH]c2ccc(F)cc2c1NC(=O)c1cc(OC)c(OC)c(OC)c1		0.13 µM [rising, full curve, poor fit]	
c1ccc(-c2ccccc2OCCCN2CCCCCC2)cc1	-25.4	29.1 µM [falling, single point]	
Cc1ccc(-n2[nH]c(C)c(/C=N/NC(=O)c3ccc(O)cc3O)c2=O)cc1	74.8	11.6 µM [rising, single point]	2.31 µM [rising, partial curve]
CCOc1cc(-c2nc3cc(C)ccn3c2NCC2CCCO2)ccc1O (centres undefined)	7.62	0.291 µM [rising, single point]	
O=C(CNC(=S)N(Cc1ccccc1F)C1CCCCC1)NC1CC1	33	29.1 µM [rising, single point]	29.1 µM [rising, single point]
CCOC(=O)N1CC=C2C(C#N)=C(N)C(C#N)(C#N)[C@H](c3cccs3)[C@H]2C1		0.58 µM [rising, single point]	
Cc1ccc(C)c(N2C(=O)CC(Cc3ccc(Br)cc3)C2=O)c1 (centres undefined)	-27.7	6.51 µM [falling, single point]	
NC(=S)N/N=C/C=C/c1ccccc1	-2.25		0.58 µM [rising, single point]
CSCCC(NC(=O)c1ccc(Cl)cc1Cl)C(=O)OC1CCCCC1=O (centres undefined)	12.5		0.103 µM [falling, full curve, poor fit]
CCn1cc(/C=N\NC(=O)c2ccccc2Cl)cn1	-1.38	29.1 µM [falling, single point]	
CC1CN(C(=O)CN2C(=O)NC3(CCCCCCC3)C2=O)CC(C)O1 (centres undefined)		20.6 µM [rising, partial curve]	3.26 µM [rising, single point]
O=C(O)c1c(N2CCCCC2)ccc([N+](=O)[O-])c1N1CCCCC1	24.4		
CC(=O)Nc1nc(C)c(S(N)(=O)=O)s1	2.52		6.51 µM [falling, single point]
CCCC[C@H]1COCCS(=O)(=O)N1Cc1ccc(F)cc1	6.59		
CN(c1ccccc1)S(=O)(=O)c1ccc(Cl)c(C(=O)Nc2ccccc2N2CCOCC2)c1	49		4.11 µM [rising, full curve]
Nc1nc(SCC(=O)NC2CCCCCC2)[nH]c(=O)c1-c1ccccc1	21.8	0.259 µM [falling, full curve]	
COc1ccccc1C(=O)COC(=O)c1cccc(S(=O)(=O)N2CCCC2)c1	-37.6		29.1 µM [falling, single point]
Cc1ccc(S(=O)(=O)N(C)C)cc1NC(=O)COC(=O)C1COc2ccccc2O1 (centres undefined)	42.6	23.1 µM [rising, single point]	

3 entries picked at random from those above, as already listed:
SMILES	cell number change [%]	AC50 [1]	AC50 [2]
Cc1ccc(-n2[nH]c(C)c(/C=N/NC(=O)c3ccc(O)cc3O)c2=O)cc1	74.8	11.6 µM [rising, single point]	2.31 µM [rising, partial curve]
c1ccc(-c2ccccc2OCCCN2CCCCCC2)cc1	-25.4	29.1 µM [falling, single point]	
NC(=S)N/N=C/C=C/c1ccccc1	-2.25		0.58 µM [rising, single point]

Going on with the list.

SMILES	cell number change [%]	AC50 [1]	AC50 [2]
O=C(C(c1ccccc1)c1ccccc1)N1CCN(Cc2ccncc2)CC1	-20.1		
Cc1cc(C)n2ncnc2n1	14.1	5.17 µM [rising, single point]	
CN(Cc1ccon1)C(=O)CC1C(=O)NCCN1Cc1cccc(F)c1F (centres undefined)	-0.587		
O=C1CC(C(=O)O)S/C(=N\NC(=O)c2ccccc2)N1 (centres undefined)	-97.3	23.1 µM [falling, partial curve]	25.9 µM [falling, partial curve]
COC(=O)c1c(C(=O)OC)c(C)n(Cc2cccnc2)c1C	11.4		
COC(=O)c1cc(CSc2nc3ccccc3[nH]2)oc1C	9.66	1.84 µM [rising, partial curve]	0.651 µM [rising, full curve, poor fit]
COc1cc2ccccc2cc1C(=O)Nc1sc2c(c1C(N)=O)CCN(C(C)C)C2	-44.8	20.6 µM [falling, partial curve]	13 µM [falling, single point]
CCOc1ccc(NC(=O)NCc2ccccn2)cc1	-16.3	29.1 µM [rising, single point]	
O=C1c2cccc(OCC(=O)N3CCCc4ccccc43)c2CCN1Cc1ccc(F)cc1	18.3	2.06 µM [rising, single point]	
CCC(c1nnc(SCC(=O)Nc2cc(S(C)(=O)=O)ccc2Cl)n1Cc1ccccc1)N(C)C (centres undefined)	25.6	1 µM [rising, partial curve]	
COc1cccc(NC(=O)CN(C)C(=O)CCc2nc3sc4c(c3c(=O)[nH]2)CCCC4)c1	-19.1	18.4 µM [falling, single point]	
Cc1cc(C)cc(NC(=O)CN2CCN(c3ccccn3)CC2)c1		18.4 µM [falling, single point]	
CCN(C(=O)CN1CCC(C)CC1)c1c(N)n(Cc2ccccc2)c(=O)[nH]c1=O	64.3	32.6 µM [rising, single point]	32.6 µM [rising, single point]
CCCn1c(SCC(=O)Nc2ccccc2C(=O)OC)nc2c1c(=O)n(C)c(=O)n2C		1.84 µM [rising, partial curve]	2.31 µM [rising, partial curve]
CCOC(=O)/C=C/C(=O)OCC(=O)Nc1ccc(Cl)cn1	6.72		
N#Cc1cc(C(=O)c2cc(Br)ccc2O)cn(C2CC2)c1=O	-37		29.1 µM [falling, single point]
CCN(CC)C(=O)CN(c1cc(Cl)ccc1OC)S(=O)(=O)c1ccc(C)c([N+](=O)[O-])c1	-0.663		
CC(C(=O)OCC(=O)c1cccc([N+](=O)[O-])c1)N1C(=O)C2C3C=CC(C3)C2C1=O (centres undefined)	5.13	1.84 µM [rising, full curve]	
CCN(CC1COc2ccccc2O1)C(=O)CN1C(=O)NC(C)(c2ccccc2)C1=O (centres undefined)	-3.89		
Cc1cc(C(F)F)n2nc(C(=O)Nc3ccc(S(=O)(=O)N4CCCC4)cc3)nc2n1	-0.583	1.64 µM [rising, partial curve, poor fit]	

From PubChem BioAssay AID2685 (National Center for Advancing Translational Sciences (NCATS), 2010)
